Patent US20070286823A1, “COMPOSITIONS HAVING ANTI-DENTAL CARIES FUNCTION” (Ezaki Glico Co., Ltd., priority 2001, published 2007)
Some of these results come from one statement about several compounds together.

System: S. mutans strain 8148
Experiment: effect on fermentation of sucrose (pH of bacterial cell suspension)
Type: cell-based
Conditions: 0.684% sugar added to 20% bacterial cell suspension; within 5 minutes
Experimental: S. mutans strain 8148 was incubated in 1,000 ml of brain heart infusion medium (manufactured by DIFCO Corporation) at 37° C. for 14 hours. Thereafter, the bacteria were collected by centrifugation at 6,000 rpm for 20 minutes. The bacteria was washed with phosphate buffered saline (PBS, pH 7.2), and suspended in the same PBS to 40% (v/v). To measure the pH, a reaction mixture (250 μl) was made of 125 μl of 40% bacterial cell suspension, 62.5 μl of 80 mM sucrose, and 62.5 μl of an aqueous solution containing various oligosaccharides (5% phosphorylated oligosaccharide sodium salt and phosphorylated oligosaccharide calcium salt). The pH of the reaction mixture was continuously measured with a pH meter (manufactured by Toa Denpa) while being incubated at 37° C.

OC[C@H]1O[C@@](CO)(O[C@H]2O[C@H](CO)[C@@H](O)[C@H](O)[C@H]2O)[C@@H](O)[C@@H]1O [sucrose]
pH of the reaction liquid: below 5.0
